Test results published in paper PMC10531280.

Chains of the proteins cited; added tags and fusions are not shown. Lines headed by an entry give the natural chain unless they say otherwise; changes in a name come on top.
UniProt Q9BST9: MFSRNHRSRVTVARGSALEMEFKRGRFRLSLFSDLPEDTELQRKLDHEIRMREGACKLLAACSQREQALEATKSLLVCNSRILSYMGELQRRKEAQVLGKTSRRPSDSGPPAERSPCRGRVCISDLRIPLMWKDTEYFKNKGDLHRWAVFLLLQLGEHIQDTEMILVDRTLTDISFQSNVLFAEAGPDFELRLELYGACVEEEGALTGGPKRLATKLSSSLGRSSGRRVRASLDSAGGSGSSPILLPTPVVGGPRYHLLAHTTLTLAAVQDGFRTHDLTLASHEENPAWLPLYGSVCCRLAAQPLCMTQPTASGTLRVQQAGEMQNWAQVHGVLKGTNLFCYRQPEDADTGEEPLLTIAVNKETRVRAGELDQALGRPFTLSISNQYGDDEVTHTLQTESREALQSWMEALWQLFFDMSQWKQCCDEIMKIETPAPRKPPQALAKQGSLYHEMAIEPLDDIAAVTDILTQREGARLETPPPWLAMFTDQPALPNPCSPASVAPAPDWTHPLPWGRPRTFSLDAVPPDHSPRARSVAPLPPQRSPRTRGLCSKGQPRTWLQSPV
UniProt P61586: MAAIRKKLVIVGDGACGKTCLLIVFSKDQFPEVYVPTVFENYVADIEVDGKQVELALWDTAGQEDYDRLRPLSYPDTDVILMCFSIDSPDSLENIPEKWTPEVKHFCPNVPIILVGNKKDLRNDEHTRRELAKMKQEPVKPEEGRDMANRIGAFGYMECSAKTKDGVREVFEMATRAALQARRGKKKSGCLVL

Biological target: GST-Rhotekin-Rho binding domain (RBD) (UniProt Q9BST9)
Assay: pull-down; GST-Rhotekin-RBD beads; cell lysate (500 µg protein) loaded with 0.1 mM GTPγS (10 mM EDTA, 30 °C, 30 min, stopped with 60 mM MgCl2); RhoA detected by Western blotting; only the target purified

RhoA (from UniProt P61586 1-193)
binding: binds

Results are given in words; binding and its absence hold for the method and conditions named. In cells and extracts the contact can be indirect. Binding calls can cover weak binding; strength is not graded here.
